The target of assay [1] is T1, SHIP1SH2 (mouse) (UniProt Q9ES52).
T1 sequence: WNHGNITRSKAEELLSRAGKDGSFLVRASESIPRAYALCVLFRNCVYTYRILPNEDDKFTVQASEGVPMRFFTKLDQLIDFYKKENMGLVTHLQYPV
The assay can be described thus: pull-down; SH2 domain coupled to CNBr-Sepharose beads added to cleared 1% NP-40 lysates of mouse splenic B cells (stimulated 5 min at 37°C with 100 μM pervanadate, 10 μg/mL anti-IgG H+L or 6.4 μg/mL F(ab’)2 anti-IgG H+L), 2 h at 4°C, washed 3x in lysis buffer, eluted in reducing Laemmli buffer, immunoblot; only the target purified.

By UniProt entry, the sequences of proteins in these tests, tags left out. Residues count along the entry.
UniProt P25911, residues 129-226: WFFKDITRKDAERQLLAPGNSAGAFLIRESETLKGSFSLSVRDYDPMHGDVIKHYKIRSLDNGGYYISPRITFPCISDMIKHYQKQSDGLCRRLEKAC

Assay [2] addresses LynSH2 (mouse) (UniProt P25911). The assay is described as above.

In paper PMC7641642 one finds binding data, which are given here for two molecules.

No constants are given. Whether binding was seen depends on the method and setting. In cells and extracts the contact can be indirect. Some binding calls cover weakened binding; strength is not graded here.

B1: CD22 (receptor, UniProt P35329 22-868)
chain: SANDWTVDHPQTLFAWEGACIRIPCKYKTPLPKARLDNILLFQNYEFDKATKKFTGTVLYNATKTEKDPESELYLSKQGRVTFLGNRIDNCTLKIHPIRANDSGNLGLRMTAGTERWMEPIHLNVSEKPFQPYIQMPSEIRESQSVTLTCGLNFSCFGYDILLKWFLEDSEITSITSSVTSITSSVTSSIKNVYTESKLTFQPKWTDHGKSVKCQVQHSSKVLSERTVRLDVKYTPKLEIKVNPTEVEKNNSVTMTCRVNSSNPKLRTVAVSWFKDGRPLEDQELEQEQQMSKLILHSVTKDMRGKYRCQASNDIGPGESEEVELTVHYAPEPSRVHIYPSPAEEGQSVELICESLASPSATNYTWYHNRKPIPGDTQEKLRIPKVSPWHAGNYSCLAENRLGHGKIDQEAKLDVHYAPKAVTTVIQSFTPILEGDSVTLVCRYNSSNPDVTSYRWNPQGSGSVLKPGVLRIQKVTWDSMPVSCAACNHKCSWALPVILNVHYAPRDVKVLKVSPASEIRAGQRVLLQCDFAESNPAEVRFFWKKNGSLVQEGRYLSFGSVSPEDSGNYNCMVNNSIGETLSQAWNLQVLYAPRRLRVSISPGDHVMEGKKATLSCESDANPPISQYTWFDSSGQDLHSSGQKLRLEPLEVQHTGSYRCKGTNGIGTGESPPSTLTVYYSPETIGKRVALGLGFCLTICILAIWGMKIQKKWKQNRSQQGLQENSSGQSFFVRNKKARRTPLSEGPQSQGCYNPAMDDTVSYAILRFPESDTHNTGDAGTPATQAPPPNNSDSVTYSVIQKRPMGDYENVNPSCPEDESIHYSELVQFGAGKRPQAKEDVDYVTLKH
modifications: tyrosine-phosphorylated (pervanadate-stimulated cells; sites not stated)
In the case of B1, the binding entry in assay [1] is given as “binds”.

B2: phosphorylated CD79a (receptor, UniProt P11911 29-220)
chain: LRVEGGPPSLTVNLGEEARLTCENNGRNPNITWWFSLQSNITWPPVPLGPGQGTTGQLFFPEVNKNHRGLYWCQVIENNILKRSCGTYLRVRNPVPRPFLDMGEGTKNRIITAEGIILLFCAVVPGTLLLFRKRWQNEKFGVDMPDDYEDENLYEGLNLDDCSMYEDISRGLQGTYQDVGNLHIGDAQLEKP
modifications: tyrosine-phosphorylated (blotted with anti-pCD79a Y182)
With B2, the binding result in assay [2] and in assay [1] was “binds” throughout.
